This is one part of the list.
molecular target: T1, OsSMF1 (Oryza sativa, UniProt Q6ZLB0 1-436); assay: protein-binding microarray (RPBM); PBS, 2% BSA, 51.3 ng/ul salmon testes DNA, 50 uM zinc acetate, 200 nM TF, 25 C, 1 h; high values mean tight binding; conditions: protein: recombinant; tags: N-terminal polyhistidine and DsRed monomer fusion (pET32a); chain copies: 2; label: CyDye5-dUTP incorporated in the synthesized complementary strand; 3' TTTTT single-stranded linker to array surface; dsDNA, one strand shown
T1 sequence: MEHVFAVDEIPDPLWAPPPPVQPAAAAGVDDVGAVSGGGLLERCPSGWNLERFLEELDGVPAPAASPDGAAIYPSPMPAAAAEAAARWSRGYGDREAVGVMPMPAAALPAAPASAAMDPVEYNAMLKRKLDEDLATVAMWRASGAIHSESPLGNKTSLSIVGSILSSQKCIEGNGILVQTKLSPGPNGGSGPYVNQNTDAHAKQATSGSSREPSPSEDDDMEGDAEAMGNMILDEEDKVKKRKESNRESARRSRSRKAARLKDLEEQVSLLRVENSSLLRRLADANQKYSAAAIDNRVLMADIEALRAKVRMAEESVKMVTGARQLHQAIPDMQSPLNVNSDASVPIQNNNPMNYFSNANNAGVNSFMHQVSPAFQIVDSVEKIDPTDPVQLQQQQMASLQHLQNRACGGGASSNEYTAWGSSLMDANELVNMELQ
Summary of the method: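 A custom Agilent array was converted to double-stranded form by primer extension with Cy5-dUTP and blocked with 2% BSA. Protein at 200 nM in PBS with 2% BSA, salmon testes DNA and 50 µM zinc acetate was applied for 1 h at 25 °C, followed by washing. The proteins were polyhistidine–DsRed N-terminal fusions of transcription factors, expressed in E. coli BL21-CodonPlus and Ni–NTA-purified. The binding signal is per-feature fluorescence intensity (arbitrary units) from an Axon 4000B scanner.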

Sequence	binding signal
CTTTGTCCTGTACTATTGCTCATGACTCCATGCCAAGTGGCGGAGTCACCTAGTGCAG	4900 fluorescence intensity (a.u.)
TGTGTACGTCACATCCTAATTAACATCAACTTGATAAAATCGGAGTCACCTAGTGCAG	7900 fluorescence intensity (a.u.)
CGCATCGTGCCCATCCTCTTCGTCCCGCACACGTTTGTGTCGGAGTCACCTAGTGCAG	3370 fluorescence intensity (a.u.)
CTTGGCATTCTAGAGCACAGCGTGGCATGCGCTATCCCCGCGGAGTCACCTAGTGCAG	6040 fluorescence intensity (a.u.)
TGAAAGTGCCATTGCTTTGTTGTGGGGCAATGCCTCGATGCGGAGTCACCTAGTGCAG	20500 fluorescence intensity (a.u.)
TCAGTTTAATAATTAATTCAGCTGGTACATTTAGGCGAAACGGAGTCACCTAGTGCAG	25100 fluorescence intensity (a.u.)
TGAGTAATTGATAGTGACACGGCTATCCAACCAATCCAGGCGGAGTCACCTAGTGCAG	3170 fluorescence intensity (a.u.)
TGTTTTATGTTGCTGCTTCTTAGAAAGTATACGCGTATTGCGGAGTCACCTAGTGCAG	5160 fluorescence intensity (a.u.)
AGTAACCTCAATGAAAGATGCATGGTATCAGATACCACAACGGAGTCACCTAGTGCAG	3810 fluorescence intensity (a.u.)
TCCGCGGCCCCGCTGGCCCACACGCATGCGTCCAAACAGCCGGAGTCACCTAGTGCAG	3940 fluorescence intensity (a.u.)
TTGTTGCGCAATTTCATATGTTAAGTGAGGTATTATTTTGCGGAGTCACCTAGTGCAG	3220 fluorescence intensity (a.u.)
GTTTGTCGGCGACGAAGTAGACGTCATCTCCGAAGTCGCTCGGAGTCACCTAGTGCAG	4960 fluorescence intensity (a.u.)
TATAAGGGTTACTGATGGTTGGGTCCCATAGGATGACTCACGGAGTCACCTAGTGCAG	5300 fluorescence intensity (a.u.)
TTGATTCGTTTGCCAATGACACGCGGGCCCTTGAGCGCTACGGAGTCACCTAGTGCAG	4820 fluorescence intensity (a.u.)
AAATGGCTCGGCCCAATCCCAGGCGAAAACCCGTGTCCTCCGGAGTCACCTAGTGCAG	13100 fluorescence intensity (a.u.)
GTAGGCACACAGTGACACAGCGTGTCGTTGTACATTTGCACGGAGTCACCTAGTGCAG	3140 fluorescence intensity (a.u.)
AATAAATAATTATTGCTAATGGGTGATGATGTGGCATGGTCGGAGTCACCTAGTGCAG	6930 fluorescence intensity (a.u.)
CGCCGGCTCCTCGTCCTCGTCACCACCACCACGCCAACATCGGAGTCACCTAGTGCAG	7070 fluorescence intensity (a.u.)
AAGCGAGCTTACGTATTGACGAATTTACGCTTTCTGGTCACGGAGTCACCTAGTGCAG	5050 fluorescence intensity (a.u.)
ATGGGTAGGAGGGTTATTAATTGATGATGTGGTTTGGTTACGGAGTCACCTAGTGCAG	7080 fluorescence intensity (a.u.)
CATGTAGACGGCATGTTTGACCTGTCAGCGTGTGTGTGTCCGGAGTCACCTAGTGCAG	4500 fluorescence intensity (a.u.)

An excerpt of these results, as a markdown table.

| Sequence | binding signal |
| --- | --- |
| GTTTGTCGGCGACGAAGTAGACGTCATCTCCGAAGTCGCTCGGAGTCACCTAGTGCAG | 4960 fluorescence intensity (a.u.) |
| GTAGGCACACAGTGACACAGCGTGTCGTTGTACATTTGCACGGAGTCACCTAGTGCAG | 3140 fluorescence intensity (a.u.) |
| AAGCGAGCTTACGTATTGACGAATTTACGCTTTCTGGTCACGGAGTCACCTAGTGCAG | 5050 fluorescence intensity (a.u.) |

Next part:

Sequence	binding signal
TTTGTATGCGTGGATGCAGCCTGACGTGACGGCGCCGGGGCGGAGTCACCTAGTGCAG	5240 fluorescence intensity (a.u.)
AACCGAAATTGTACCACCATGATATGATTCTTAATTTTATCGGAGTCACCTAGTGCAG	3360 fluorescence intensity (a.u.)
GGCTTCCCGCGCCACAAGCTTTGCCGCCACCTCCTCCTCGCGGAGTCACCTAGTGCAG	3230 fluorescence intensity (a.u.)
GGCATGATCTGTTTCATATTGTTATGTCAAAGATGTCATTCGGAGTCACCTAGTGCAG	30400 fluorescence intensity (a.u.)
CAGCCACTGGTAGTCACAATACGATGACGTGCCCACCGCTCGGAGTCACCTAGTGCAG	5000 fluorescence intensity (a.u.)
TAGAGCCATACATGCAGACTATATTTGAGCTGACCTCAAACGGAGTCACCTAGTGCAG	3320 fluorescence intensity (a.u.)
CGTCTAGTTTCCGAAGTAGGGCGTCGAATGTTAGTATTGTCGGAGTCACCTAGTGCAG	3340 fluorescence intensity (a.u.)
AGCTAAAATAAACTTTACCAAATTTTGGCAATGCCAAAATCGGAGTCACCTAGTGCAG	51800 fluorescence intensity (a.u.)
TCATTTGCTCTTTGAGTGATACAGTACTATGCTTCCCCTTCGGAGTCACCTAGTGCAG	3690 fluorescence intensity (a.u.)
AAAGCCTAATGGGCAATCGATCGCCCCGAGCTATCACCCCCGGAGTCACCTAGTGCAG	3210 fluorescence intensity (a.u.)
CTACACACACCCGTGCCTCGCACCACGTATAACACGGTCGCGGAGTCACCTAGTGCAG	3470 fluorescence intensity (a.u.)
TATCTCCACAAGGAAAACACGATGGAGTGACGAAACACCTCGGAGTCACCTAGTGCAG	3580 fluorescence intensity (a.u.)
CAATGGCCTCCACCGCACCTCCCGCTTCCACGACGCCATGCGGAGTCACCTAGTGCAG	3510 fluorescence intensity (a.u.)
TTGGATTCGGAGCTATGTCAAACTGATTTGATGTGAATTTCGGAGTCACCTAGTGCAG	3320 fluorescence intensity (a.u.)
TGGGTGTAATTGTTTCCTCGATTTCGCTGGCATGTACTTTCGGAGTCACCTAGTGCAG	3780 fluorescence intensity (a.u.)
CGTTTTCCCAGGTTTACACGTGGCACAAGTGATTGGGACGCGGAGTCACCTAGTGCAG	16700 fluorescence intensity (a.u.)
TTGGCTATACTATTGAACTTGCTCTAAAACGTGACTAGGGCGGAGTCACCTAGTGCAG	3780 fluorescence intensity (a.u.)
CTATCTCCCCAAACCTGCCATGTAATCTTACCTCTTTGCTCGGAGTCACCTAGTGCAG	4020 fluorescence intensity (a.u.)
TGGTGCGCCGCGCTCCAGCGCGGCCGTGTTCGTGAGGTCACGGAGTCACCTAGTGCAG	3640 fluorescence intensity (a.u.)
TAAAACACACCTTAATAGACAACCAGTCAGTTGATCAGCGCGGAGTCACCTAGTGCAG	3400 fluorescence intensity (a.u.)
TCACGCTCTCAACGCTGCTGTGTCACGTCACGTCACGCGCCGGAGTCACCTAGTGCAG	16400 fluorescence intensity (a.u.)
